The target in assay [1] is T1, 3HA-tagged PIGN (phosphatidylinositol glycan anchor biosynthesis class N) (human) (UniProt O95427).
T1 sequence: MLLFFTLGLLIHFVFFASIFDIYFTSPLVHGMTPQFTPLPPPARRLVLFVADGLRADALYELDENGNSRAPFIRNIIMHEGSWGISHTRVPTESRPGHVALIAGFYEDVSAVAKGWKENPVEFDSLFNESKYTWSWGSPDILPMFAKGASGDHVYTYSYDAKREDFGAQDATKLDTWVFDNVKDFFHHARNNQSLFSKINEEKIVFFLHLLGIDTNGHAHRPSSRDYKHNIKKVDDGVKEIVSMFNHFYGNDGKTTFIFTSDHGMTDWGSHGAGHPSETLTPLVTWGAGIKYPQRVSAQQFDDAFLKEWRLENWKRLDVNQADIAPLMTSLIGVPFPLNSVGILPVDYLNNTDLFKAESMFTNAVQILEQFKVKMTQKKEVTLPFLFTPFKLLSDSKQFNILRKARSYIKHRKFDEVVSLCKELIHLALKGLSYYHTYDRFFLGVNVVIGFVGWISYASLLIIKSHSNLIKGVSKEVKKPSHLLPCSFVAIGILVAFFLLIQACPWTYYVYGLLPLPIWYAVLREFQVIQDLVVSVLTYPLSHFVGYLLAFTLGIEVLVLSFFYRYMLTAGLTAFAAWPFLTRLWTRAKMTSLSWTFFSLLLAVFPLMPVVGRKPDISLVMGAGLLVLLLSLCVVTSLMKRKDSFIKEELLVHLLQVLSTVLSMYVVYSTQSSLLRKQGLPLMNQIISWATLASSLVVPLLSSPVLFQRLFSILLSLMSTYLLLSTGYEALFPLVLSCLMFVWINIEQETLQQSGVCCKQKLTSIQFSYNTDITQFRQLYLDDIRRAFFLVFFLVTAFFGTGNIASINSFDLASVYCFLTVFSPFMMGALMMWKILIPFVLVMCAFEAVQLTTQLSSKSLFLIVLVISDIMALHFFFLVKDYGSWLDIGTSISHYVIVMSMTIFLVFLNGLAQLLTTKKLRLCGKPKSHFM
Kind of assay: co-IP; HA-tag IP of 3HA-PIGN from transiently transfected PIGN knockout HEK293 cells, partners found by western blot; cells asynchronous (48 h post-transfection), G2/M synchronised, or released from early S-phase (double-thymidine block) over a 10-h time course. In general terms: In western blotting, separated proteins are transferred to a membrane and probed.

By UniProt entry, the sequences of proteins in these tests, tags left out.
UniProt Q13257: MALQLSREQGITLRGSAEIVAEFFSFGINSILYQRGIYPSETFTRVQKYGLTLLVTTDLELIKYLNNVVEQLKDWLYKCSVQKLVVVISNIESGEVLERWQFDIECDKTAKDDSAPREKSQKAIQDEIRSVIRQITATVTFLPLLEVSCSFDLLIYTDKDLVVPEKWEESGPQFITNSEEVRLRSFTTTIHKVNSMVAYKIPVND

The target in assay [2] is T2, PIGN (phosphatidylinositol glycan anchor biosynthesis class N), endogenous (human (endogenous in K562)) (UniProt O95427).
T2 sequence: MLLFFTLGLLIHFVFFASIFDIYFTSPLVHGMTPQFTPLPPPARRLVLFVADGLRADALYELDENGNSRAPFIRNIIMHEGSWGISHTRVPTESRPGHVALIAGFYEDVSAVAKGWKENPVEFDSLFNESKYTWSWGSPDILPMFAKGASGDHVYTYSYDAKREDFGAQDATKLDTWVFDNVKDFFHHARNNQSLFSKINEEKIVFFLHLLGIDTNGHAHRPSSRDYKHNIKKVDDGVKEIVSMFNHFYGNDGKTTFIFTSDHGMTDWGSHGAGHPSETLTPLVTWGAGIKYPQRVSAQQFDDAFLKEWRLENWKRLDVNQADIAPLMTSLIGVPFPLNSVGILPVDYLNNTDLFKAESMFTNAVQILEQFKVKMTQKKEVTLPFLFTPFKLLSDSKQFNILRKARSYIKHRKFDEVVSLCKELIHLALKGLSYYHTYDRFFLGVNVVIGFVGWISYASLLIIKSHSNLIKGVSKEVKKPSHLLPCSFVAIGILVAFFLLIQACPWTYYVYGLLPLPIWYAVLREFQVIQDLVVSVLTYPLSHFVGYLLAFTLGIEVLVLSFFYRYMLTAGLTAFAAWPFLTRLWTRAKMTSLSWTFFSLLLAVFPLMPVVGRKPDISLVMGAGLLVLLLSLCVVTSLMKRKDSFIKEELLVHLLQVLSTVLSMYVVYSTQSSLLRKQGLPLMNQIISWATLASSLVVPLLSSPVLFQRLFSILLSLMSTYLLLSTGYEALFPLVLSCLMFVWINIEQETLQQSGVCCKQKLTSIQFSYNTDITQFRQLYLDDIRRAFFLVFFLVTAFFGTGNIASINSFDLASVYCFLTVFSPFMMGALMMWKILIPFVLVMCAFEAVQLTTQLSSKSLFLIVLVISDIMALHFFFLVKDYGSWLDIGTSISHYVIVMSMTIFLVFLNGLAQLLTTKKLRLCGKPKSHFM
The experiment in a line: co-IP; endogenous proteins of K562 cells treated with Taxol (60 ng/µl) or nocodazole (60–100 ng/µl) for 12 h (SAC activation); precipitating antibody not told in the text shown.

Assay [3] has as its target T2, PIGN (phosphatidylinositol glycan anchor biosynthesis class N), endogenous (human (endogenous in K562)). Described as above. This is another data set of the same source.

Our source for the binding values is PMC8463542.

Where two headings read alike, the source gives them in different places. No constants are given. Whether binding was seen depends on the method and setting. In cells and extracts the contact can be indirect. Some results given as binding are weak or reduced against the parent protein; the word gives no strength. For some assays here: Sequences can lack the tags named with a protein.

Consider MAD2 (from UniProt Q13257 1-205), for which the binding result in assay [1] is given as “binds”.
As to “MAD2, endogenous in K562 (from UniProt Q13257 1-205)”, the binding entry in assay [2] is “binds”.

B1: MPS1 (protein, UniProt P33981 1-857)
chain: MESEDLSGRELTIDSIMNKVRDIKNKFKNEDLTDELSLNKISADTTDNSGTVNQIMMMANNPEDWLSLLLKLEKNSVPLSDALLNKLIGRYSQAIEALPPDKYGQNESFARIQVRFAELKAIQEPDDARDYFQMARANCKKFAFVHISFAQFELSQGNVKKSKQLLQKAVERGAVPLEMLEIALRNLNLQKKQLLSEEEKKNLSASTVLTAQESFSGSLGHLQNRNNSCDSRGQTTKARFLYGENMPPQDAEIGYRNSLRQTNKTKQSCPFGRVPVNLLNSPDCDVKTDDSVVPCFMKRQTSRSECRDLVVPGSKPSGNDSCELRNLKSVQNSHFKEPLVSDEKSSELIITDSITLKNKTESSLLAKLEETKEYQEPEVPESNQKQWQSKRKSECINQNPAASSNHWQIPELARKVNTEQKHTTFEQPVFSVSKQSPPISTSKWFDPKSICKTPSSNTLDDYMSCFRTPVVKNDFPPACQLSTPYGQPACFQQQQHQILATPLQNLQVLASSSANECISVKGRIYSILKQIGSGGSSKVFQVLNEKKQIYAIKYVNLEEADNQTLDSYRNEIAYLNKLQQHSDKIIRLYDYEITDQYIYMVMECGNIDLNSWLKKKKSIDPWERKSYWKNMLEAVHTIHQHGIVHSDLKPANFLIVDGMLKLIDFGIANQMQPDTTSVVKDSQVGTVNYMPPEAIKDMSSSRENGKSKSKISPKSDVWSLGCILYYMTYGKTPFQQIINQISKLHAIIDPNHEIEFPDIPEKDLQDVLKCCLKRDPKQRISIPELLAHPYVQIQTHPVNQMAKGTTEEMKYVLGQLVGLNSPNSILKAAKTLYEHYSGGESHNSSSSKTFEKKRGKK
As to B1, the binding entry in assay [1] is “binds”.

B2: MAD1 (protein, UniProt Q9Y6D9 1-718)
chain: MEDLGENTMVLSTLRSLNNFISQRVEGGSGLDISTSAPGSLQMQYQQSMQLEERAEQIRSKSHLIQVEREKMQMELSHKRARVELERAASTSARNYEREVDRNQELLTRIRQLQEREAGAEEKMQEQLERNRQCQQNLDAASKRLREKEDSLAQAGETINALKGRISELQWSVMDQEMRVKRLESEKQELQEQLDLQHKKCQEANQKIQELQASQEARADHEQQIKDLEQKLSLQEQDAAIVKNMKSELVRLPRLERELKQLREESAHLREMRETNGLLQEELEGLQRKLGRQEKMQETLVGLELENERLLAKLQSWERLDQTMGLSIRTPEDLSRFVVELQQRELALKDKNSAVTSSARGLEKARQQLQEELRQVSGQLLEERKKRETHEALARRLQKRVLLLTKERDGMRAILGSYDSELTPAEYSPQLTRRMREAEDMVQKVHSHSAEMEAQLSQALEELGGQKQRADMLEMELKMLKSQSSSAEQSFLFSREEADTLRLKVEELEGERSRLEEEKRMLEAQLERRALQGDYDQSRTKVLHMSLNPTSVARQRLREDHSQLQAECERLRGLLRAMERGGTVPADLEAAAASLPSSKEVAELKKQVESAELKNQRLKEVFQTKIQEFRKACYTLTGYQIDITTENQYRLTSLYAEHPGDCLIFKATSPSGSKMQLLETEFSHTVGELIEVHLRRQDSIPAFLSSLTLELFSRQTVA
B2: the binding entry in assay [1] was “binds”.

B3: MAD1, endogenous in K562 (protein, UniProt Q9Y6D9 1-718)
chain: MEDLGENTMVLSTLRSLNNFISQRVEGGSGLDISTSAPGSLQMQYQQSMQLEERAEQIRSKSHLIQVEREKMQMELSHKRARVELERAASTSARNYEREVDRNQELLTRIRQLQEREAGAEEKMQEQLERNRQCQQNLDAASKRLREKEDSLAQAGETINALKGRISELQWSVMDQEMRVKRLESEKQELQEQLDLQHKKCQEANQKIQELQASQEARADHEQQIKDLEQKLSLQEQDAAIVKNMKSELVRLPRLERELKQLREESAHLREMRETNGLLQEELEGLQRKLGRQEKMQETLVGLELENERLLAKLQSWERLDQTMGLSIRTPEDLSRFVVELQQRELALKDKNSAVTSSARGLEKARQQLQEELRQVSGQLLEERKKRETHEALARRLQKRVLLLTKERDGMRAILGSYDSELTPAEYSPQLTRRMREAEDMVQKVHSHSAEMEAQLSQALEELGGQKQRADMLEMELKMLKSQSSSAEQSFLFSREEADTLRLKVEELEGERSRLEEEKRMLEAQLERRALQGDYDQSRTKVLHMSLNPTSVARQRLREDHSQLQAECERLRGLLRAMERGGTVPADLEAAAASLPSSKEVAELKKQVESAELKNQRLKEVFQTKIQEFRKACYTLTGYQIDITTENQYRLTSLYAEHPGDCLIFKATSPSGSKMQLLETEFSHTVGELIEVHLRRQDSIPAFLSSLTLELFSRQTVA
On to B3, for which the binding entry in assay [3] is listed as “binds”.
